LdMetRS: 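Primary screen of methionyl-tRNA synthetase; the read-out is not stated. Target: Methionyl-tRNA synthetase (putative), Leishmania donovani (UniProt E9BF75). The test concentration is not given. The values are filed as inhibition. Size under these conditions: about 68,000 compounds, about 24 of them at 50% or above in at least one test.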
Mtb heat-shock: 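Assay on Mycobacterium tuberculosis, filed only as a heat shock assay from Cornell; the read-out is not stated. The concentration is filed as 10 mM, unlikely as a test dose, so the dose is not known. The record gives no direction; compounds that gave an IC50 in retests scored well above the rest, so higher reads as stronger inhibition. Of about 69,000 compounds tested this way, about 930 (1.4%) reached 50% or more in at least one test.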

The chains behind the UniProt entries cited, without tags or fusion partners.
UniProt E9BF75, entry or part of it: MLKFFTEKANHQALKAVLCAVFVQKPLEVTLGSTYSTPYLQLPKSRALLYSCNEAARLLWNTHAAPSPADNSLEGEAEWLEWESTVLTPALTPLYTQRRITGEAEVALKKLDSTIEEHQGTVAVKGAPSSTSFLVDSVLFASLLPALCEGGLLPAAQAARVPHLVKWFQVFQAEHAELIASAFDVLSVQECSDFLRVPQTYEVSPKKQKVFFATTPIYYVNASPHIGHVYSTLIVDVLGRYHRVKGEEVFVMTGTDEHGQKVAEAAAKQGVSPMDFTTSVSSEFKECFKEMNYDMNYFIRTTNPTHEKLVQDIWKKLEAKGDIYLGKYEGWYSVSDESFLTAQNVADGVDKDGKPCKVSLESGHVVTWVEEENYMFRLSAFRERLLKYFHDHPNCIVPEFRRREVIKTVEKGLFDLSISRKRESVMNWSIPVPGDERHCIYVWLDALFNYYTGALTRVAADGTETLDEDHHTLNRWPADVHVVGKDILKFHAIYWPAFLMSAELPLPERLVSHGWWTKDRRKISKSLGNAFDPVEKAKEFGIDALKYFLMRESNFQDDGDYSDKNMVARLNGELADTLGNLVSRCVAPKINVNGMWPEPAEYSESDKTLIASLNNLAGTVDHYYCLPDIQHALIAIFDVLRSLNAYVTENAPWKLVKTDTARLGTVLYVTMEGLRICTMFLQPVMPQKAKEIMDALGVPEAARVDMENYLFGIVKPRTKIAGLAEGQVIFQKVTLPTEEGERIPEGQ

Results are percentages, as filed.
How 0% and 100% were set is not recorded. Most values in the screen are low, and negative values occur.
This is an unselected part of the compounds tested.
A dash means the value is not listed here; it may have been measured.

CCc1nc(CNC(C)c2cccc(N3CCCC3=O)c2)cs1 (stereo not given) gave LdMetRS: 15.93%.
Cc1cc(C(C)(O)CNC(=O)CCOCC(C)C)c(C)o1 (stereo not given) gave LdMetRS: 13.04%; Mtb heat-shock: 12.89%.
CCC(C)C(=O)NCc1ccn(-c2ccc(F)cc2)n1 (stereo not given) gave LdMetRS: 11.42%; Mtb heat-shock: 5.779%.
COCC(C)(CCO)NC(=O)Nc1cccc(F)c1C (stereo not given) gave LdMetRS: 2.431%; Mtb heat-shock: -0.3461%.
Cc1ccc(C(=O)N2CCCCC2CNC(N)=O)cc1F (stereo not given) gave LdMetRS: 16.48%; Mtb heat-shock: -5.117%.
COc1ccccc1NC(=O)Cc1c(C)nc2c(c1C)c(=O)[nH]n2C gave LdMetRS: 16.43%; Mtb heat-shock: 15.92%.
CC(C)n1cnnc1CCNCc1cn(CCC(N)=O)c2ccccc12 gave LdMetRS: 20.21%; Mtb heat-shock: 4.755%.
O=C(O)C(F)(F)F.[H][C@]12CN(CCc3ccccc3)C[C@@]1([H])S(=O)(=O)CC[C@@H]2C(=O)NC1CCC1 gave Mtb heat-shock: -4.907%.
Cc1ncc(CN(C)C(=O)c2ccc3c(c2O)OC(C)(C)C3)s1 gave LdMetRS: 6.522%; Mtb heat-shock: 17.19%.
Cc1cc(C)n(CC2CN(CC(=O)NC3CCCCC3)CCO2)n1 (stereo not given) gave LdMetRS: 21.94%; Mtb heat-shock: -10.91%.
COCCN1C(=O)CC[C@]12CC[C@@H](NC(=O)c1cc(C)on1)CC2 gave LdMetRS: -14.44%; Mtb heat-shock: 8.891%.
CN(Cc1cc(-c2cccnc2)no1)C(=O)[C@@H]1CSCN1C gave LdMetRS: 12.32%; Mtb heat-shock: -8.105%.
CCCNC(c1cccnc1)c1ccc(F)c(C)c1.Cl.Cl (stereo not given) gave Mtb heat-shock: -18.54%.
CCCc1nc(C)cc(NCc2ccc(S(N)(=O)=O)cc2)n1 gave LdMetRS: 14.88%; Mtb heat-shock: -18.87%.
Cc1cccc(C(=O)NCc2ccc(N3CCCCCC3)nc2)n1 gave LdMetRS: 23.21%; Mtb heat-shock: 0.1933%.
N#Cc1cc(F)c(NCCc2ccc(S(N)(=O)=O)cc2)c(F)c1 gave LdMetRS: 10.51%; Mtb heat-shock: -1.731%.
O=C(NCCNc1ccc(C(F)(F)F)cn1)c1ccc(F)cc1Cl gave LdMetRS: 24.31%; Mtb heat-shock: 8.181%.
Cc1noc(C)c1CN1C[C@@H](NS(=O)(=O)N(C)C)[C@H](C(C)C)C1 gave LdMetRS: 12.53%; Mtb heat-shock: -8.075%.
[H][C@]12CN(S(C)(=O)=O)CCN1C[C@H](c1ccccc1)[C@H]2C(=O)OCC gave Mtb heat-shock: 9.667%.
CC(=O)N1CCN(c2cc(C3CCNCC3)ccn2)CC1.Cl.Cl gave Mtb heat-shock: 2.778%.
COCC1CN(c2ccc(C)nn2)Cc2cnn(CC3CCOCC3)c21 (stereo not given) gave LdMetRS: 13.11%.
Cc1nccn1C1(C(=O)O)CCN(Cc2ccc3nsnc3c2)CC1 gave LdMetRS: 7.444%; Mtb heat-shock: 13.97%.
CN(Cc1ccc(Cl)s1)C(=O)COc1cccc(C(N)=O)c1 gave LdMetRS: 10.15%; Mtb heat-shock: 23.18%.
O=C(NC[C@H]1OC[C@@H](NCc2ccccn2)[C@@H]1O)c1ccc(F)cc1 gave LdMetRS: 1.695%; Mtb heat-shock: -15.64%.

Repeated from the top, 2 entries:

Compound	LdMetRS	Mtb heat-shock
CCc1nc(CNC(C)c2cccc(N3CCCC3=O)c2)cs1 (stereo not given)	15.93	-
Cc1cc(C(C)(O)CNC(=O)CCOCC(C)C)c(C)o1 (stereo not given)	13.04	12.89

From ChEMBL document CHEMBL3988442, “University of Dundee, Small-Polar-MMV Screening Library” (2021).